From article PMC4302234 (Amino Acids, 2014)

Assay: general procedure: Fmoc solid-phase peptide synthesis; Preloaded Wang resins (0.58–0.79 mM/g); TCTU/HOBt/DIEA
Settings: whole synthesis, RP-HPLC, trifluoroacetate salts

Substance	final HPLC purity
PEPTIDE1{Y.I.N.Q.M.P.Q.K.S.R.E.A}$$$$V2.0	96.0%
PEPTIDE1{Y.I.N.Q.M.P.Q.K.S.R.E}$$$$V2.0	91.0%
IYEAVNKVSPRAGQF	99.0%
PEPTIDE1{V.T.G.R.F.A.G.H.P.A.A.Q}$$$$V2.0	97.0%

Where a sequence shows no end group, the ends are not given. Some peptides are written in HELM: one residue between dots, names in brackets for other building blocks, links after the first $.
